This is an account of results in paper PMC7257154.

Amino acid sequences for entries named in this document (tags omitted).
UniProt Q15796: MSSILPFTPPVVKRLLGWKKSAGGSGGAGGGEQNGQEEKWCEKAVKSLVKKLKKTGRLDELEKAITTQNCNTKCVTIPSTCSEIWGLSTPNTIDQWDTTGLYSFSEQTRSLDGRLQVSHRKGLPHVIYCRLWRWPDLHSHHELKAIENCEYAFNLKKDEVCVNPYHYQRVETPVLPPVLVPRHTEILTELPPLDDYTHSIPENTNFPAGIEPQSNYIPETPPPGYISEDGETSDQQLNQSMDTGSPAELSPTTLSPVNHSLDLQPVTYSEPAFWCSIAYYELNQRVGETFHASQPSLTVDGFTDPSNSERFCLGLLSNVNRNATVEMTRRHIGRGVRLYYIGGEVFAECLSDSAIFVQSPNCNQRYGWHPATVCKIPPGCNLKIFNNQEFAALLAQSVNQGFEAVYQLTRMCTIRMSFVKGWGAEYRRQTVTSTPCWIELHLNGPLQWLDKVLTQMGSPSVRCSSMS
UniProt Q13485: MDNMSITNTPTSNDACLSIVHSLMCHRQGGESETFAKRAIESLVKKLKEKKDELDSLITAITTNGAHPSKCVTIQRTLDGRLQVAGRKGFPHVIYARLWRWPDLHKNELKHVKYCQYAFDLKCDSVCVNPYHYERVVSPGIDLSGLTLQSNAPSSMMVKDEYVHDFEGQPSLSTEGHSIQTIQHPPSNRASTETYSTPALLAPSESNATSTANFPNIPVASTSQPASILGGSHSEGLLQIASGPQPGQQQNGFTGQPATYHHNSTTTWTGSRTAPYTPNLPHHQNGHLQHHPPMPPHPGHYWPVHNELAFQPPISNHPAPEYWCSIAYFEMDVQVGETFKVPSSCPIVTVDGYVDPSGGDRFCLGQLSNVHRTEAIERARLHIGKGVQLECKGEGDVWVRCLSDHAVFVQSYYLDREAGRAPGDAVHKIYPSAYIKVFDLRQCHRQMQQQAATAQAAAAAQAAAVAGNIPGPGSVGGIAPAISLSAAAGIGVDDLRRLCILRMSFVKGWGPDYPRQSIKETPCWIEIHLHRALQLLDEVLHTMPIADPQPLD

In one assay the target is Flag-Smad2 (UniProt Q15796). Description: co-IP; lysate of late gastrula Xenopus laevis embryos co-injected with RNA of the Myc-tagged construct and of the Flag-tagged Smad; precipitated with anti-Flag and Dynabeads Protein G, blot with anti-Myc; lysis buffer 150 mM NaCl, 20 mM Tris pH 7.5, 1% Nonidet P-40, 1 mM EDTA; 4 °C overnight; normal rabbit IgG as control.
Assay [1] has as its target Flag epitope-tagged human Smad4 (human) (UniProt Q13485). The description is as above.

No constants are given. Whether binding was seen depends on the method and setting. In cells and extracts the contact can be indirect. A result given as binding can be weak or reduced; the word gives no strength.

With Myc-Tbx2R-A (from UniProt B7ZQY8), the binding result with Flag-Smad2 is “binds”.
Still for that read-out and setting: for “Myc-Tbx2ΔC (from UniProt B7ZQY8) (domain or fragment)” the value was “binds”.
Turning to “Myc-epitope-tagged Tbx2 (from UniProt B7ZQY8)”, the binding result (in the assay with Flag-Smad2; in assay [1]) was “binds” each time.
